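A cell line overexpressing EP4 prostanoid receptors, stimulated with a low (about EC15) PGE2 dose; cAMP read by HTRF FRET after a short room-temperature incubation.
Compounds were tested at 20 µM final. A low (about EC15) PGE2 dose was present.
Percent cAMP induction as a fraction of the 1 µM PGE2 response, averaged over three replicates; a higher value means more cAMP.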

Values are in %.
Common to all entries: measured here: EP4 receptor counter-screen.
This is a side read-out of the assay, for part of the compounds, not drawn at random.

| # | SMILES | tested on / at | cAMP induction (%) |
|---|---|---|---|
| 1 | `COc1cc(OC)cc(-c2nc(N)n[nH]2)c1` | percent of 1 uM PGE2 response; plus low (about EC15) PGE2 agonist | 6.63 |
| 2 | `Cc1noc(C)c1CSc1nc2ccccc2c(=O)n1-c1ccccc1` | percent of 1 uM PGE2 response; plus low (about EC15) PGE2 agonist | 1.807 |
| 3 | `CCCc1cc(C(=O)OC)c(NC(=O)c2cc(C)on2)s1` | percent of 1 uM PGE2 response; plus low (about EC15) PGE2 agonist | 20.12 |
| 4 | `Cc1nn(Cc2c(Cl)cccc2Cl)c(C)c1C(=O)NCc1ccc(C)n1C` | percent of 1 uM PGE2 response; plus low (about EC15) PGE2 agonist | 3.367 |
| 5 | `COc1ccc(-n2c(COc3cccc4ccccc34)nnc2SCC(=O)NCc2ccco2)cc1` | percent of 1 uM PGE2 response; plus low (about EC15) PGE2 agonist | -7.273 |
| 6 | `Cc1ccc2nc(N3CCC(C(=O)O)CC3)nc(-c3ccccc3)c2c1` | percent of 1 uM PGE2 response; plus low (about EC15) PGE2 agonist | -5.183 |
| 7 | `Cc1ccccc1CSCC(=O)Nc1ccccc1-c1ccccc1` | percent of 1 uM PGE2 response; plus low (about EC15) PGE2 agonist | 7.893 |
| 8 | `CCCCn1c(C)cc(C)c(S(=O)(=O)c2ccccc2C)c1=O` | percent of 1 uM PGE2 response; plus low (about EC15) PGE2 agonist | -4.543 |
| 9 | `CCc1c(-c2n[nH]c(=S)n2Cc2ccccc2)csc1C` | percent of 1 uM PGE2 response; plus low (about EC15) PGE2 agonist | -0.18 |
| 10 | `O=C(COc1cccc2ccccc12)N1c2ccccc2CCc2ccccc21` | percent of 1 uM PGE2 response; plus low (about EC15) PGE2 agonist | -1.1 |
| 11 | `O=C(Nc1ccccc1Br)c1ccccc1-c1ccccc1` | percent of 1 uM PGE2 response; plus low (about EC15) PGE2 agonist | 0.3867 |
| 12 | `CCOC(=O)c1cnn(-c2nc(-c3ccc(F)cc3)cs2)c1C(F)(F)F` | percent of 1 uM PGE2 response; plus low (about EC15) PGE2 agonist | -4.653 |
| 13 | `CCOc1ccc(-c2nn3c(-c4ccccc4)nnc3s2)cc1` | percent of 1 uM PGE2 response; plus low (about EC15) PGE2 agonist | -5.203 |
| 14 | `CCOC(=O)C1CCN(c2c(C(=O)c3ccccc3)cnc3ccc(CC)cc23)CC1` | percent of 1 uM PGE2 response; plus low (about EC15) PGE2 agonist | -6.183 |
| 15 | `CC(=O)N1c2ccccc2C(C)(c2ccccc2)CC1(C)C` (stereo not given) | percent of 1 uM PGE2 response; plus low (about EC15) PGE2 agonist | -2.99 |
| 16 | `CCN(CC)P(=O)(Nc1ccccc1Br)c1ccc(N(C)C)cc1NC(=O)c1ccco1` (stereo not given) | percent of 1 uM PGE2 response; plus low (about EC15) PGE2 agonist | -16.14 |
| 17 | `CCOC(=O)c1cc2sc(C)cc2n1C(C)C(=O)OCC` (stereo not given) | percent of 1 uM PGE2 response; plus low (about EC15) PGE2 agonist | 10.32 |
| 18 | `NCCc1c(-c2ccccc2)n(-c2ccccc2)c2ccccc12` | percent of 1 uM PGE2 response; plus low (about EC15) PGE2 agonist | -10.05 |
| 19 | `CC12CCCC(O)(C1)C1CC(C)(C)C1CC2` (stereo not given) | percent of 1 uM PGE2 response; plus low (about EC15) PGE2 agonist | -6.573 |
| 20 | `CCOc1cccc(CNc2ccc(O)cc2)c1OCc1ccc(Cl)cc1` | percent of 1 uM PGE2 response; plus low (about EC15) PGE2 agonist | -19.7 |
| 21 | `CCN(CC)C(=O)Cn1cc(C(=O)C(=O)NCc2ccco2)c2ccccc21` | percent of 1 uM PGE2 response; plus low (about EC15) PGE2 agonist | -5.643 |
| 22 | `Cc1ccc(C(=O)Nc2ccccc2N2CCCCC2)cc1[N+](=O)[O-]` | percent of 1 uM PGE2 response; plus low (about EC15) PGE2 agonist | -3.677 |
| 23 | `CCOC(=O)c1c(NC(=O)c2cccnc2)sc(C)c1C` | percent of 1 uM PGE2 response; plus low (about EC15) PGE2 agonist | 1.84 |
| 24 | `CC(C)Sc1cc(N2CCOCC2)nc(-c2ccccc2)n1` | percent of 1 uM PGE2 response; plus low (about EC15) PGE2 agonist | -1.327 |
| 25 | `COc1cccc2[nH]c3c(N4CCCCC4)ncnc3c12` | percent of 1 uM PGE2 response; plus low (about EC15) PGE2 agonist | 3.687 |
| 26 | `Cc1ccc(-n2c(=S)[nH]c3c(oc4ccccc43)c2=O)cc1` | percent of 1 uM PGE2 response; plus low (about EC15) PGE2 agonist | 57.94 |
| 27 | `O=C(Cc1ccc(Br)cc1)Nc1ccccc1Sc1ccccc1` | percent of 1 uM PGE2 response; plus low (about EC15) PGE2 agonist | -9.4 |
| 28 | `Fc1cccc(CSc2ncnc3c2oc2ccccc23)c1` | percent of 1 uM PGE2 response; plus low (about EC15) PGE2 agonist | 60.31 |
| 29 | `c1ccc(-c2nn3c(C4CCCCC4)nnc3s2)cc1` | percent of 1 uM PGE2 response; plus low (about EC15) PGE2 agonist | 5.087 |
| 30 | `COc1ccccc1Nc1cc(C)nc2c(C)ccc([N+](=O)[O-])c12` | percent of 1 uM PGE2 response; plus low (about EC15) PGE2 agonist | -5.737 |
| 31 | `CC1=C(/C=C/C(C)=C/C=C/C(C)=C/C(=O)O)C(C)(C)CCC1` | percent of 1 uM PGE2 response; plus low (about EC15) PGE2 agonist | -1.857 |
| 32 | `CC(=O)Oc1ccc2ccccc2c1C(NC(=O)Cc1ccccc1)c1ccccc1` (stereo not given) | percent of 1 uM PGE2 response; plus low (about EC15) PGE2 agonist | -3.03 |

For reference, 3 entries once more:

SMILES	tested on / at	cAMP induction (%)
Fc1cccc(CSc2ncnc3c2oc2ccccc23)c1	percent of 1 uM PGE2 response; plus low (about EC15) PGE2 agonist	60.31
Cc1noc(C)c1CSc1nc2ccccc2c(=O)n1-c1ccccc1	percent of 1 uM PGE2 response; plus low (about EC15) PGE2 agonist	1.807
Cc1nn(Cc2c(Cl)cccc2Cl)c(C)c1C(=O)NCc1ccc(C)n1C	percent of 1 uM PGE2 response; plus low (about EC15) PGE2 agonist	3.367

The results are deposited in PubChem (AID1080; Emory University Molecular Libraries Screening Center, 2008).